Measurements as given in PMC6925144, “A prospective compound screening contest identified broader inhibitors for Sirtuin 1” (Scientific Reports, 2019).
In all, about 3,200 compounds were measured (“TSA(without NAD+) / Primary screening (TSA) / delta Tm (K)”: median about -0.07, highest 2% from about 0.37 on). This is one part of the list.

Sequences of proteins named here, by UniProt entry; tags and fusion partners are left off. Residues count along the entry.
UniProt Q96EB6, 2-747 limits assumed: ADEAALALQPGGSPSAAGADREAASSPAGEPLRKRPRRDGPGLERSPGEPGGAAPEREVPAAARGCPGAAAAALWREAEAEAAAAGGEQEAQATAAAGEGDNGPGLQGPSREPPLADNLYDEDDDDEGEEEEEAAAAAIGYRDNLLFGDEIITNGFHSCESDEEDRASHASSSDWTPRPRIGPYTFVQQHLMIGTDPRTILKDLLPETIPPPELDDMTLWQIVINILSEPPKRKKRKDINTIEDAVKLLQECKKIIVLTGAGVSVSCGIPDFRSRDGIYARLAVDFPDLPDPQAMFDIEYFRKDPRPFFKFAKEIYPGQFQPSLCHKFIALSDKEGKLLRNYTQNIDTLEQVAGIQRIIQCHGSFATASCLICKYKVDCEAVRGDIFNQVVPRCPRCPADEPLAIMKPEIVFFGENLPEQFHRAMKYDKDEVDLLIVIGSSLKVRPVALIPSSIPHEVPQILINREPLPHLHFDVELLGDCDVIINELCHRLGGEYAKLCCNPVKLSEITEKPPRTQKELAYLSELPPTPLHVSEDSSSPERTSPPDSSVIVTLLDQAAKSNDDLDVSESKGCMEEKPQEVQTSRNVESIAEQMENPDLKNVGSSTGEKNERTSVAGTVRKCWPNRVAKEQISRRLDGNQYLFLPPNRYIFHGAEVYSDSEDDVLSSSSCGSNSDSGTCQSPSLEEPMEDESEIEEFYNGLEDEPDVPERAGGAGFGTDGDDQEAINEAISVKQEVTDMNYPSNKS

Target: NAD-dependent deacetylase Sirtuin 1 (human, UniProt Q96EB6)
Experiment: primary screen, delta tm
Parameters: single well (n = 1)
Conditions: 10 µM
In short: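 Thermal shift of Sirtuin 1 measured without NAD+, compound at 10 µM (n = 1); value is ΔTm, with hits defined as ΔTm > 0.45 K or < −1.5 K. Hits retested at 5, 10, 20 µM (n = 4) and counterscreened on bovine carbonic anhydrase and ABL1 SH2 domain.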

In order of rising “TSA(without NAD+) / Primary screening (TSA) / delta Tm (K)” value:
1. CCc1c(C)nc2ccccc2c1N1CCN2C(=O)C(=O)NCC2C1 (centres unmarked)  -0.28 K
2. Fc1ccc2[nH]cc(C3CCNCC3)c2c1  -0.24 K
3. NC(=O)C1CCN(c2ncnc3sc4c(c23)CCC4)CC1  -0.21 K
4. CN(C)c1c(F)cc(C(=N)N)cc1F  -0.18 K
5. CCCOc1cccc(C2C(C(=O)c3ccc(C)o3)=C(O)C(=O)N2CCCN2CCOCC2)c1 (centres unmarked)  -0.17 K
6. CCC(N)CC(=O)O (centres unmarked)  -0.17 K
7. COCCN(CC(=O)Nc1ccccc1C(F)(F)F)C(=O)Cc1csc(-c2ccsc2)n1  -0.12 K
8. COc1ccc(OC)c2c1CN(C(C)c1nc(C3CC3)no1)CC2O (centres unmarked)  -0.12 K
9. COC(=O)NC(CC(C)C)C(=O)NCc1cc(C)nc2ccccc12 (centres unmarked)  -0.12 K
10. CC1(C)C(NC(=O)C2CC(c3cccc(F)c3)=NO2)C2CCOC21 (centres unmarked)  -0.11 K
11. CSCCOC(=O)c1ccc2[nH]c(C(F)F)nc2c1  -0.08 K
12. c1nc(N2CCNCC2)c2sccc2n1  -0.08 K
13. c1ccc(-c2cnc(CSc3nc4ccccc4o3)o2)cc1  -0.07 K
14. C=CCOc1ccc(C(=O)C2=C(O)C(=O)N(CCCN3CCOCC3)C2c2ccc(F)cc2)cc1 (centres unmarked)  -0.05 K
15. O=C(Nc1ccc(S(=O)(=O)N2CCOCC2)cc1)C1=COCCO1  -0.05 K
16. N#C/C(=C/c1ccc(-c2cccc(Cl)c2)o1)C(=O)Nc1cccc2ncccc12  -0.04 K
17. Cc1nc2c(C(N)=O)ncn2c(C)c1CCC(=O)NCCSc1ccccc1  -0.03 K
18. C=CCOc1cccc(C2C(C(=O)c3ccc(C)o3)=C(O)C(=O)N2CCCN2CCOCC2)c1 (centres unmarked)  -0.02 K
19. Cc1ccc(S(=O)(=O)NCc2ccco2)cc1C(=O)NCc1ccccc1-n1cccn1  -0.01 K
20. CCO/C=C1/C(=O)N(c2ccc(S(=O)(=O)N3CCOCC3)cc2)C(=O)c2ccccc21  0.02 K
21. O=C(CCn1[nH]c(=O)ccc1=O)Nc1cccc2cccnc12  0.02 K
22. CN(Cc1ccc(F)cc1)c1cc(=O)n2ccccc2n1  0.02 K
23. COc1ccc(/C=N/c2ccc(C(=O)O)cc2)cc1Br  0.07 K
24. CCCCc1ccc(Nc2nnc(SCC(=O)Nc3ccc(N4CCN(Cc5ccccc5)CC4)cc3)s2)cc1  0.08 K
25. Cc1ccc(S(=O)(=O)N2CCN(C(=O)CSc3nnc(NCc4ccco4)s3)CC2)cc1  0.16 K
26. CC(=O)c1sc(NC(=O)c2cnc3ccccc3n2)nc1-c1ccccc1  0.25 K
